# Measurements published in PubChem BioAssay AID2462 (Broad Institute, 2010).
# Screen size: about 330,000 compounds; about 220 (0.067%) were called active. All entries are inconclusive by the source's own rule. Clear calls are listed elsewhere.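 The calls were made as follows: active = over half of replicate activation scores above 10%, or exactly half above 10 with the replicate mean above 10; inconclusive = replicate mean below 10 yet half the replicates above 10; inactive = over half of replicates below 10.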
# Experiment: caspase 3/7 activation in MEF A1-2A-BIM cells, primary screen, A1 inhibitor project, cell-based, luminescence, HTS (AID 2462)
# Settings: Caspase-Glo 3/7 luminescence, 3 h, stronger effect = higher value, percent of clofoctol response, vehicle zero, concentration not given here
row,SMILES,caspase activation
1,CCOC(=O)N1CCC(Nc2cccc(C)c2)CC1,inconclusive: 2.03%
